Measured values reported in paper PMC8222357, “The structure of ORC–Cdc6 on an origin DNA reveals the mechanism of ORC activation by the replication initiator Cdc6” (Nature Communications, 2021).
No constants are given. Whether binding was seen depends on the method and setting. Some entries that bind do so weakly or less than the wild type.

Target: T1, Orc2, subunit of S. cerevisiae ORC (S. cerevisiae), P32833
T1 chain: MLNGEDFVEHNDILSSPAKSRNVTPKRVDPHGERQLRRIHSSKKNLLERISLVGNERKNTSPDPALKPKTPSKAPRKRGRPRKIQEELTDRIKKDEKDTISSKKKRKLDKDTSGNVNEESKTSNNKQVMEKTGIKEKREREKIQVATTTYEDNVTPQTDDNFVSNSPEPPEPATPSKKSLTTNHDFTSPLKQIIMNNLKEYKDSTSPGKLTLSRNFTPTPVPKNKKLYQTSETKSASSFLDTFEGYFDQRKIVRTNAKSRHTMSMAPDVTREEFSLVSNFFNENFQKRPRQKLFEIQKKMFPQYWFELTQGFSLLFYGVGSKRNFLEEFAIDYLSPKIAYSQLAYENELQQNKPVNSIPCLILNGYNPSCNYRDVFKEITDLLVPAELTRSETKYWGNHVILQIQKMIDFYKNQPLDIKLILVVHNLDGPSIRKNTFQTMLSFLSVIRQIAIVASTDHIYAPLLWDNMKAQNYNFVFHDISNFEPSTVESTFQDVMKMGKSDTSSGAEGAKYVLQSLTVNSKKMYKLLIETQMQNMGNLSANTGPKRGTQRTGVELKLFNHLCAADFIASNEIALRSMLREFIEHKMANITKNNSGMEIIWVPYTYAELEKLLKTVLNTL
Experiment: cryo-EM structure; ORC first bound to 85 bp ARS1 origin dsDNA, then Cdc6 added (about 1 μM ORC:1.25 μM DNA:6.4 μM Cdc6), 5 mM ATPγS, 5 mM DTT, on ice; no cross-linking agent; maps at 3.3 and 3.6 Å; both purified
Details: remark: other sources report otherwise

- binding: binds
B1: Cdc6 (replication initiator), S. cerevisiae, wild type (natural protein)
chain: MSAIPITPTKRIRRNLFDDAPATPPRPLKRKKLQFTDVTPESSPEKLQFGSQSIFLRTKALLQKSSELVNLNSSDGALPARTAEYEQVMNFLAKAISEHRSDSLYITGPPGTGKTAQLDMIIRQKFQSLPLSLSTPRSKDVLRHTNPNLQNLSWFELPDGRLESVAVTSINCISLGEPSSIFQKIFDSFQDLNGPTLQIKNMQHLQKFLEPYHKKTTFVVVLDEMDRLLHANTSETQSVRTILELFLLAKLPTVSFVLIGMANSLDMKDRFLSRLNLDRGLLPQTIVFQPYTAEQMYEIVIQKMSSLPTIIFQPMAIKFAAKKCAGNTGDLRKLFDVLRGSIEIYELEKRFLLSPTRGSLNSAQVPLTPTTSPVKKSYPEPQGKIGLNYIAKVFSKFVNNNSTRTRIAKLNIQQKLILCTIIQSLKLNSDATIDESFDHYIKAITKTDTLAPLQRNEFLEICTILETCGLVSIKKTKCKGKTKRFVDKIDVDLDMREFYDEMTKISILKPFLH
notes: Cdc6, S. cerevisiae; also called yeast Cdc6; source: purified as described previously, with minor modifications (lysis buffer with 500 mM potassium phosphate)
